SMILES strings stand for the structures. “And” between values parts separate entries of the source, which are not always exact repeats. Identical values can stand only once. This is one part of the list. This data set is noisy: repeats of one test often differ as much as different tests do.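 HEK293T cells were given each compound shortly before transfection with a reporter in which red mCherry is followed by the SARS-CoV-2 frameshift element and then GFP in the −1 frame, so GFP appears only after frameshifting.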

The experiment deals with SARS-CoV-2 -1 PRF reporter mCherry-FSE-GFP(-1). Kind of experiment: percent effect, decrease of GFP/mCherry ratio (-1 PRF reporter) relative to controls; higher = stronger frameshift inhibition. Conditions: 10 µM; 24 h; HEK293T.
On to `CN[C@@H]1[C@H](O[C@H]2[C@H](O[C@H]3[C@H](O)[C@@H](O)[C@H](N=C(N)N)[C@@H](O)[C@@H]3N=C(N)N)O[C@@H](C)[C@]2(O)C=O)O[C@@H](CO)[C@H](O)[C@H]1O` [Streptomycin], for which the percent effect was -1.82% and 4.82%.
Regarding `C[C@]12CCC(=O)C=C1CC[C@@H]1[C@@H]2[C@@H](O)C[C@@]2(C)[C@H]1CC[C@]2(O)C(=O)CO` [hydrocortisone], the percent effect was -5.28% and -1.87% and -10.6%.
`C[C@H]1C[C@H]2[C@@H]3CCC4=CC(=O)C=C[C@]4(C)[C@@]3(F)[C@@H](O)C[C@]2(C)[C@@]1(O)C(=O)CO` [betamethasone]: the percent effect is 0.626% and -6% and -6.36%.
Then `CC(=O)O[C@H]1C[C@@H]2CC[C@@H]3[C@H](CC[C@@]4(C)[C@H]3C[C@H]([N+]3(C)CCCCC3)[C@@H]4OC(C)=O)[C@@]2(C)C[C@@H]1N1CCCCC1` [vecuronium bromide], with 4.45% and 2.69%; and `CN(C)CCOc1ccc(/C(=C(/CCCl)c2ccccc2)c2ccccc2)cc1` [toremifene], with -3.45% and -1.72% and -0.0728%.
With `COC1=C(OC)C(=O)C(CCCCCCCCCCO)=C(C)C1=O` [idebenone], the percent effect was 4.97% and -1.13%.
Then `CCC1=C(C)CN(C(=O)NCCc2ccc(S(=O)(=O)NC(=O)N[C@H]3CC[C@H](C)CC3)cc2)C1=O` [Glimepiride], with -2.89% and -6.54%; and `COc1ccccc1OCC(O)CO` (stereo not given) [guaifenesin], with -10.4% and -8.06%.
Then `Nc1nc(N)nc(-c2cc(Cl)ccc2Cl)n1` [irsogladine], with -1.88% and -1.98%; and `CC[C@H](C)C(=O)O[C@H]1C[C@@H](C)C=C2C=C[C@H](C)[C@H](CC[C@@H]3C[C@@H](O)CC(=O)O3)[C@H]21` [lovastatin], with 0.296% and -0.713%.
For the compound `N=c1ccn2c(n1)O[C@H]1[C@H](O)[C@@H](CO)O[C@H]12` [ancitabine], the percent effect was 0.311% and -1.96%.
For `Cc1oncc1C(=O)Nc1ccc(C(F)(F)F)cc1` [leflunomide], the percent effect is 0.451% and -6.62%.
Then `CCCCOc1ccc(C(=O)CCN2CCCCC2)cc1`, with -3.44% and -9.99%; and `CC[N+](CC)(CC)CCOc1cccc(OCC[N+](CC)(CC)CC)c1OCC[N+](CC)(CC)CC` [gallamine triethiodide], with -2.71% and -2.74%.
Then `Clc1ccc(CO/N=C(\Cn2ccnc2)c2ccc(Cl)cc2Cl)c(Cl)c1` [Oxiconazole], with -0.804% and -9.62%; and `CC1CCc2c(N3CCC(O)CC3)c(F)cc3c(=O)c(C(=O)O)cn1c23` (stereo not given) [nadifloxacin], with -3.94% and -3.19%.
On to `CCOC(=O)[C@H](CCc1ccccc1)N[C@@H](C)C(=O)N1CCC[C@H]1C(=O)O` [enalapril], for which the percent effect is 2.22% and -0.541%.
Then `CCOC(=O)[C@H](CCc1ccccc1)N[C@@H](C)C(=O)N1[C@H](C(=O)O)C[C@@H]2CCC[C@@H]21` [ramipril], with -0.129% and 1.76%; and `OC[C@@H](O)[C@@H](O[C@@H]1O[C@H](CO)[C@H](O)[C@H](O)[C@H]1O)[C@H](O)[C@@H](O)CO`, with -2.56% and -0.352%; and `OC(Cn1cncn1)(Cn1cncn1)c1ccc(F)cc1F` [fluconazole], with 1.17% and -9.64%.
The same measure for `CCCCCN(C)CCC(O)(P(=O)(O)O)P(=O)(O)O` [ibandronic acid]: 5.66% and 0.428%.
Then `Cc1[nH]c(=O)c(C#N)cc1-c1ccncc1` [milrinone], with -2.2% and 0.442%.
Regarding `NC(=O)c1ncn([C@@H]2O[C@H](CO)[C@@H](O)[C@H]2O)n1` [ribavirin], the percent effect was -3.05% and -11.4%.
Then `CCCCN1CCCCC1C(=O)Nc1c(C)cccc1C` (stereo not given) [bupivacaine], with 1.07% and -6.13%.
Then `C[C@]12CC[C@@H]3c4ccc(O)cc4CC[C@H]3[C@@H]1CCC2=O` [estrone], with 1.32% and -1.2%.
Then `CCCSc1ccc2[nH]c(NC(=O)OC)nc2c1` [albendazole], with -21.9% and -8.22%; and `CN1CCN(CCCN2c3ccccc3Sc3ccc(C(F)(F)F)cc32)CC1` [trifluoperazine], with -2.02% and 1.02%.
`CC/C(=C(/CC)c1ccc(O)cc1)c1ccc(O)cc1` [diethylstilbestrol]: the percent effect is -0.886% and -9.03%.
The same measure for `CNNCc1ccc(C(=O)NC(C)C)cc1` [procarbazine]: -1.35% and 14.6%; for `O=c1[nH]cc(F)c(=O)[nH]1` [fluorouracil]: 3.17% and 6.59%; for `Cc1ccc(NC(=O)c2ccc(CN3CCN(C)CC3)cc2)cc1Nc1nccc(-c2cccnc2)n1` [imatinib]: -1.88% and -5.74%.
Take `O=c1[nH]c(=O)n([C@H]2C[C@H](O)[C@@H](CO)O2)cc1I` [idoxuridine]: the percent effect was -2.5% and -6.71%.
For the compound `CN(C/C=C/C#CC(C)(C)C)Cc1cccc2ccccc12` [terbinafine], the percent effect was 1.86% and -1.25% and -0.00367%.
Then `CC(c1cc2ccccc2s1)N(O)C(N)=O` (stereo not given) [zileuton], with -1.73% and -12.4%; and `CC(=O)OCC(=O)[C@@]12OC3(CCCC3)O[C@@H]1C[C@H]1[C@@H]3CCC4=CC(=O)C=C[C@]4(C)[C@@]3(F)[C@@H](O)C[C@@]12C` [amcinonide], with -3.1% and -1.38%.
For the compound `CC[C@H]1OC(=O)[C@H](C)[C@@H](O[C@H]2C[C@@](C)(OC)[C@@H](O)[C@H](C)O2)[C@H](C)[C@@H](O[C@@H]2O[C@H](C)C[C@H](N(C)C)[C@H]2O)[C@](C)(OC)C[C@@H](C)C(=O)[C@H](C)[C@@H](O)[C@]1(C)O` [clarithromycin], the percent effect was -2.4% and -4.78%.
Take `CCn1cc(C(=O)O)c(=O)c2cc(F)c(N3CCNCC3)cc21` [norfloxacin]: the percent effect was -4.31% and 2.15%.
Turning to `CC(=O)OCC[N+](C)(C)C` [acetylcholine chloride], the percent effect was -0.0948% and 0.975%.
The same measure for `COc1c(N2CCNC(C)C2)c(F)cc2c(=O)c(C(=O)O)cn(C3CC3)c12` (stereo not given) [gatifloxacin]: -1.53% and -1.64%.
Then `C[C@@H]1CN(c2c(F)c(N)c3c(=O)c(C(=O)O)cn(C4CC4)c3c2F)C[C@H](C)N1` [sparfloxacin], with -12.3% and -9.04%.

The record behind these values is the supplement of paper PMC8256030.
